# Experimental data published in PubChem BioAssay AID504834 (National Center for Advancing Translational Sciences (NCATS), 2011).
# The campaign covered roughly 320,000 compounds. About 22,000 (6.9%) were called active. The shares of active, inactive and inconclusive entries below differ from those in the screen. Calls follow the shape of the dose curve; as a rule, active = well fitted inhibition curve with a large enough effect; inconclusive = small, poorly fitted or top-dose-only effect, or another doubt; inactive = no such curve, though single readings can be large or run the other way. A potency beside an inconclusive call is a rough fit, not a confirmed value.
# Assay: Primary qHTS for delayed death inhibitors of the malarial parasite plastid, 96 hour incubation
# Settings: P. falciparum luciferase reporter growth; series mostly up to 28.7 µM; activity change, negative = inhibition: at the top concentration
# Outline: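 Luminescence readout: decreased luciferase signal marks inhibited growth of reporter-expressing P. falciparum in infected red cells (2% hematocrit, 0.05% parasitemia final), exposed to compound two generations (96 h, 37 C, 5% CO2).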
# % is scaled to controls: 0 for no effect and ±100 for the full control effect; potency is read from the fitted curve at half-maximal effect.
SMILES,Potency,"activity change, negative = inhibition"
O=C(CN1C(=O)NC(c2ccccc2)(c2ccccc2)C1=O)NCc1ccccc1,"inconclusive: 14.7 µM [inhibitor, partial curve]",
COc1ccc(/C=C/C(=O)N2CC(C)OC(C)C2)cc1OC (stereo not given),,inactive: -20.2%
COc1cccc(C(C(=O)NCc2ccco2)N(C(=O)Cn2nnc3ccccc32)C2CC2)c1OC (stereo not given),"inconclusive: 11.7 µM [inhibitor, partial curve, poor fit]",
CNC(=O)c1ccsc1NC(=O)c1ccc(S(=O)(=O)N2CCc3ccccc32)cc1,active: 11.7 µM,
COC(=O)c1cn(NC(=O)C2CCCO2)c(=O)c2ccccc12 (stereo not given),active: 11.7 µM,
COc1cc(OC)c(NC(=O)c2ccc(Br)o2)cc1Cl,"inconclusive: 18.5 µM [inhibitor, single point]",
O=C(CCc1n[nH]c(=O)[nH]c1=O)Nc1cccc([N+](=O)[O-])c1,,inactive: -1.93%
COC(=O)c1ccc2c(=O)n(CCN3CCOCC3)c(SCC(=O)Nc3ccc(OC)cc3OC)nc2c1,"inconclusive: 13.1 µM [inhibitor, single point]",
Cc1c(C)c2cc(Cl)c(O)c(CN(C)C)c2oc1=O,"inconclusive: 0.828 µM [inhibitor, full curve, poor fit]",
CC1CCCCN1C(=O)CNCc1ccc(F)cc1 (stereo not given),,inactive: 32%
CC(NC(=O)C(C)N1CCN(Cc2ccccc2)CC1)c1ccc(F)cc1 (stereo not given),,inactive: 31.6%
COc1ccc(Cn2nnnc2C(CC(C)C)N2CCN(c3ccccc3)CC2)cc1 (stereo not given),,inactive: 11.9%
O=C(O)/C=C/C(=O)Nc1cc(F)ccc1F,,inactive: -1.24%
COc1ccccc1CNC(=O)C1CCN(S(=O)(=O)c2ccc(N3CCCC3=O)cc2)CC1,active: 14.7 µM,
CCN(CC)S(=O)(=O)c1ccc(-c2nnc(SCC(N)=O)n2CC)cc1,,inactive: -19.8%
CC1CC(C)CN(CCCNC(=O)c2ccc(CS(=O)(=O)Cc3ccccc3F)o2)C1 (stereo not given),"inconclusive: 13.1 µM [inhibitor, single point]",
O=C(Nc1ccc2nc(N3CCOCC3)sc2c1)c1ccc(F)cc1,"inconclusive: 16.5 µM [inhibitor, single point]",
CCOc1ccc2ccccc2c1/C=N/NC(=O)CNC(=O)C(c1ccccc1)c1ccccc1,,inactive: -15.6%
NS(=O)(=O)c1ccc(NC(=S)NC(=O)c2ccc(Br)o2)cc1,,inactive: 35.3%
CCOC(=O)CSc1nc(-c2ccccn2)ncc1OC,"inconclusive: 11.7 µM [inhibitor, single point]",
O=C(Nc1ccc(O)cc1)c1ccccc1O,,inactive: 28.8%
CS(=O)(=O)c1ccc(NC(=O)C2CCCN(C(=O)c3ccc(Cl)cc3)C2)cc1 (stereo not given),"inconclusive: 13.1 µM [inhibitor, partial curve, poor fit]",
Cc1sc2ncnc(SCc3ccco3)c2c1C,,inactive: 8.68%
O=C(c1nnsc1S(=O)(=O)c1ccc(Cl)cc1)N1CCOCC1,"inconclusive: 10.4 µM [inhibitor, single point]",
C=CCn1c(SCC(=O)N2CCc3ccccc3C2)nc2ccccc2c1=O,,inactive: -8.54%

SMILES,Potency,"activity change, negative = inhibition"
O=C(c1ccccc1)N1CCN(c2ncnc3sc4c(c23)CCC4)CC1,"inconclusive: 9.28 µM [inhibitor, single point]",
CC1(c2ccc([N+](=O)[O-])cc2)NC(=O)N(CC(=O)Nc2ccc(N3CCCCC3)cc2)C1=O (stereo not given),"inconclusive: 18.5 µM [inhibitor, single point]",
Cc1ccc(C)c(N(Cc2cc3ccc(C)cc3[nH]c2=O)C(=O)c2ccco2)c1,active: 7.38 µM,
COc1cc(NC(=O)c2cc(-c3ccco3)on2)cc(OC)c1OC,"inconclusive: 18.5 µM [inhibitor, single point]",
c1ccc(Cn2nc(-c3ccccc3)nc2-c2ccccc2)cc1,,inactive: 15%
c1ccc(-c2nc(-c3ccccn3)nc(-c3ccccn3)n2)nc1,"inconclusive: 3.29 µM [inhibitor, full curve]",
CC1CCCN(c2nc(NCc3ccco3)nc(N)c2[N+](=O)[O-])C1 (stereo not given),"inconclusive: 1.85 µM [inhibitor, partial curve]",
O=C(NCCCN1CCCC1)c1cc2c(Cl)nc3ccccc3c2s1,active: 5.86 µM,
COc1ccc(C(=O)Nc2ccc(N3CCN(C(=O)C(C)C)CC3)cc2)cc1[N+](=O)[O-],,inactive: 35.9%
CC1=NN(c2ccccc2)C(=O)/C1=C\N(O)c1ccccc1,,inactive: 1.37%
O=C(CC(Nc1cccc(Cl)c1Cl)C(=O)OCC(=O)c1cccs1)c1ccccc1 (stereo not given),"inconclusive: 18.5 µM [inhibitor, single point]",
CC(=O)Nc1cccc(OCC(=O)/C=C2\N(C)c3ccccc3C2(C)C)c1,active: 0.828 µM,
CCc1ccc2oc(=O)cc(CN3CCN(CCO)CC3)c2c1,,inactive: 0%
O=C(COc1ccc2ccccc2c1)NN1C(=O)c2ccccc2C1=O,"inconclusive: 11.7 µM [inhibitor, single point]",
Fc1ccc(-c2csc3[n+]2CCS3)cc1,active: 4.15 µM,
Cc1nnc(SCC(=O)NC(C)(C)C)n1CCc1ccccc1,"inconclusive: 0.0828 µM [inhibitor, full curve, poor fit]",
CCCc1cc(=O)n2[nH]c(C)cc2n1,"inconclusive: 11.7 µM [inhibitor, single point]",
COc1ccc(-c2nnc3n2N=C(C)CS3)cc1,,inactive: 89.5%
O=C(COC(=O)c1ccc(F)cc1F)Nc1ccc2[nH]c(=O)[nH]c2c1,,inactive: -1.72%
COCCn1nnnc1C(c1cc2cc(C)ccc2[nH]c1=O)N1CCc2ccccc21 (stereo not given),"inconclusive: 2.94 µM [inhibitor, partial curve, poor fit]",
Cc1cc(C)cc(OCC(=O)OCC(=O)Nc2cc(C)nn2-c2ccccc2)c1,"inconclusive: 18.5 µM [inhibitor, single point]",
CCOc1ccc2nc(-c3ccccc3)[nH]c2c1,,inactive: 0.519%
O=C(NCc1ccco1)C(=O)NCC1OCCCN1S(=O)(=O)c1ccc(Cl)cc1 (stereo not given),"inconclusive: 2.62 µM [inhibitor, partial curve, poor fit]",
COc1cc(OC)c(OC)cc1CNCCc1cccc(F)c1,,inactive: 22.7%
O=C(COC(=O)[C@H](Cc1ccccc1)NC(=O)c1ccco1)NCc1ccccc1,"inconclusive: 2.33 µM [inhibitor, partial curve]",

# 2 successive records already listed, quoted:
SMILES,Potency,"activity change, negative = inhibition"
CCOc1ccc2nc(-c3ccccc3)[nH]c2c1,,inactive: 0.519%
O=C(NCc1ccco1)C(=O)NCC1OCCCN1S(=O)(=O)c1ccc(Cl)cc1 (stereo not given),"inconclusive: 2.62 µM [inhibitor, partial curve, poor fit]",

# Record cards, from the list above:
# CCOc1ccc2nc(-c3ccccc3)[nH]c2c1 in the list: activity change, negative = inhibition: inactive: 0.519%
# CC1(c2ccc([N+](=O)[O-])cc2)NC(=O)N(CC(=O)Nc2ccc(N3CCCCC3)cc2)C1=O (stereo not given) in the list: Potency: inconclusive: 18.5 µM [inhibitor, single point]
